In PubChem BioAssay AID651768 (National Center for Advancing Translational Sciences (NCATS), 2012):
Out of some 360,000 compounds screened, about 1,700 (0.47%) were called active. This list was built around the results that the source calls inconclusive (neither active nor inactive); the mix of calls is not that of the screen. Calls come from the whole dose curve; as a rule, active = well fitted inhibition curve with a large enough effect; inconclusive = small, poorly fitted or top-dose-only effect; inactive = no such curve, though single readings can be large or run the other way. Where the call is inconclusive, the potency comes from a doubtful curve fit.

Protein sequences, listed by entry. Tags and fused reporters are not part of them.
UniProt Q14191, whole entry, looked up: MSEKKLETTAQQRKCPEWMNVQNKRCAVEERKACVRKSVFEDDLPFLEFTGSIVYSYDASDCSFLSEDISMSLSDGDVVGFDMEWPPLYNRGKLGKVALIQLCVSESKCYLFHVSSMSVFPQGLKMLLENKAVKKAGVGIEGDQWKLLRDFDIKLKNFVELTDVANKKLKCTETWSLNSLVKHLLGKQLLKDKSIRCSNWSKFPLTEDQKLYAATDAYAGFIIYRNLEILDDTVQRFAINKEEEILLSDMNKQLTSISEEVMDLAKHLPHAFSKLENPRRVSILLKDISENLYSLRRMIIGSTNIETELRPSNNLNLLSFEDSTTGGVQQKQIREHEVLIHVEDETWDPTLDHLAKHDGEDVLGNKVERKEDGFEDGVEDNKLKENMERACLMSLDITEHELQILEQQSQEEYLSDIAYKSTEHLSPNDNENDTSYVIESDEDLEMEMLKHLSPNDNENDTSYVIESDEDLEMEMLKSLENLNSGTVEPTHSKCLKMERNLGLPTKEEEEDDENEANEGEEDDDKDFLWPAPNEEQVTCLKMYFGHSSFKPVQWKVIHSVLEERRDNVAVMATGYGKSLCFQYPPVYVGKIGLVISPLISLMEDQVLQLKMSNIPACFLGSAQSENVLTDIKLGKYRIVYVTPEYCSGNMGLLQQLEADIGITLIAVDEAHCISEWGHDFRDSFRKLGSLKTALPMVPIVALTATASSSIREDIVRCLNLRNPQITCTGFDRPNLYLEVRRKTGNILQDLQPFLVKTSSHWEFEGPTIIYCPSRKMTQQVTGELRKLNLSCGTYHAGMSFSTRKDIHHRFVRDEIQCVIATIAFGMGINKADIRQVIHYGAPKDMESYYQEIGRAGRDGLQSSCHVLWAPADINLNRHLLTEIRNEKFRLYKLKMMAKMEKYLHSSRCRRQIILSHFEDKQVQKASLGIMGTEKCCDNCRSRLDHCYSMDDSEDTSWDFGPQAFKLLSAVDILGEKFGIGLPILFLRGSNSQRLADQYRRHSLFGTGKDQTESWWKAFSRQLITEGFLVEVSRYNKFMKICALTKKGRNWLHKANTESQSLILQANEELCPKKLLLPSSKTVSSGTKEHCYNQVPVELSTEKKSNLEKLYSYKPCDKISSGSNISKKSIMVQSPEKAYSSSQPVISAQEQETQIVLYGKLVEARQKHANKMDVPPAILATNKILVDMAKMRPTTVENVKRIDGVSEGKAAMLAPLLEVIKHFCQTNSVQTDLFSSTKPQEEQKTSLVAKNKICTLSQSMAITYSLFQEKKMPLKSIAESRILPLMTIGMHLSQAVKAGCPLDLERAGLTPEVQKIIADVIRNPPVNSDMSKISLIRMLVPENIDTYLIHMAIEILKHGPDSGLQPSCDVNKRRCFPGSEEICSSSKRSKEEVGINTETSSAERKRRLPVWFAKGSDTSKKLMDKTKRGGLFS

biological target: Bifunctional 3'-5' exonuclease/ATP-dependent helicase WRN (Homo sapiens) (UniProt Q14191); assay: qHTS for Inhibitors of WRN Helicase; details: WRN helicase unwinding, fluorescent forked duplex, kinetic; activity change, negative = inhibition: at 114 µM (top of the series) unless noted; note: nearly all actives have a fitted effect of over 55% in size
Outline: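 Fluorescence dequenching readout, ex 525 nm/em 598 nm, kinetic mode: forked duplex DNA (100 nM final) with adjacent fluorophore and quencher unwound by WRN (20 nM final) with 2 mM ATP. Compound preincubation 15 min, room temperature.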
% is set by controls: 0 for no effect and ±100 for the full control effect; potency is the fitted concentration of half-maximal effect.

| Compound | Potency | activity change, negative = inhibition |
| --- | --- | --- |
| O=C(CSc1nc(NS(=O)(=O)c2ccccc2)cc(=O)[nH]1)Nc1ccc(Cl)cc1 | inconclusive: 70.8 µM [inhibitor, single point] |  |
| O=C(COc1ccc(S(=O)(=O)N2CCOCC2)cc1)N1CCOCC1 |  | inactive: -33.4% |
| O=C(Cc1cc(=O)[nH][nH]1)N/N=C/C=C/c1ccccc1 | inconclusive: 50.1 µM [inhibitor, partial curve] |  |
| CC1(C)OC(C)(C)/C(=C/Nc2ccc(O)cc2)C1=O |  | inactive: -26.7% [at 57.1 µM] |
| O=C(N/N=C/c1ccco1)c1ccc(C(=O)N/N=C/c2ccco2)o1 | active: 39.8 µM |  |
| COc1cc(NCCCC(C)N)c2ncccc2c1 (configuration not stated) | inconclusive: 56.2 µM [inhibitor, partial curve] |  |
| COc1ccc(C(=O)/C=C/c2ccc(OC)c(CN3CCOCC3)c2)cc1 | inconclusive: 11.2 µM [inhibitor, partial curve] |  |
| O=S1(=O)Nc2c(ccc3cccnc23)-c2ccccc21 |  | inactive: -13.2% |
| CCOc1ccc(Nc2ccc(N)c(S(=O)(=O)O)c2)cc1 |  | inconclusive: -59.8% [inhibitor] |
| CN(C)CCNC(=O)c1cccc(-c2cnc3c(NC=O)cc(-c4cccc(F)c4)cn23)c1 | inconclusive: 70.8 µM [inhibitor, single point] |  |
| O=c1[nH]c(Nc2nc3ccccc3o2)nc2c1CCCC2 |  | inactive: -17.4% [at 57.1 µM] |
| O=C(/C=C\c1ccco1)Nc1nc(-c2ccc3ccccc3c2)cs1 | inconclusive: 25.1 µM [inhibitor, single point] |  |
| Cc1ccc(NC(=O)CSc2nnc(NC(=O)C3CC3)s2)cc1C | inconclusive: 10 µM [inhibitor, partial curve] |  |
| CC(=O)Oc1ccc(N2C(=O)[C@@H]3[C@H](C2=O)[C@H]2c4ccccc4C=NN2[C@@H]3C(C)=O)cc1 | inconclusive: 3.55 µM [inhibitor, full curve, poor fit] |  |
| Nc1cc([N+](=O)[O-])ccc1O | inconclusive: 50.1 µM [inhibitor, partial curve] |  |
| O=C(O)c1ccccc1/C=N/NC(=O)c1cc(-c2ccco2)nc2ccccc12 | inconclusive: 3.36 µM [inhibitor, partial curve] |  |
| O=C(/C=C/c1ccccc1Cl)N1CCCN(C(=O)/C=C/c2ccccc2Cl)CC1 | inconclusive: 12.6 µM [inhibitor, partial curve] |  |
| C=CCSc1nnc(C)c(/C=C/Nc2ccc(Cl)cc2)n1 | inconclusive: 25.1 µM [inhibitor, single point] |  |
| O=C1C=C(c2ccc3cc[nH]c3c2)C[C@@H](c2ccc3c(c2)OCO3)C1 | inconclusive: 79.4 µM [inhibitor, partial curve] |  |
| O=C(CSc1nc2ccccc2c(=O)[nH]1)Nc1cccc([N+](=O)[O-])c1 | inconclusive: 39.8 µM [inhibitor, full curve, poor fit] |  |
| CCN(CC)c1ccc(C(=O)NNC(=O)CCNC(=O)c2ccccc2)cc1 |  | inactive: 3.08% |

In the list so far, 8 contain sulfur.

| Compound | Potency | activity change, negative = inhibition |
| --- | --- | --- |
| O=C(CSc1nc(NS(=O)(=O)c2ccccc2)cc(=O)[nH]1)Nc1ccc(Cl)cc1 | inconclusive: 70.8 µM [inhibitor, single point] |  |
| O=C(COc1ccc(S(=O)(=O)N2CCOCC2)cc1)N1CCOCC1 |  | inactive: -33.4% |
| O=S1(=O)Nc2c(ccc3cccnc23)-c2ccccc21 |  | inactive: -13.2% |
| CCOc1ccc(Nc2ccc(N)c(S(=O)(=O)O)c2)cc1 |  | inconclusive: -59.8% [inhibitor] |
| O=C(/C=C\c1ccco1)Nc1nc(-c2ccc3ccccc3c2)cs1 | inconclusive: 25.1 µM [inhibitor, single point] |  |
| Cc1ccc(NC(=O)CSc2nnc(NC(=O)C3CC3)s2)cc1C | inconclusive: 10 µM [inhibitor, partial curve] |  |
| C=CCSc1nnc(C)c(/C=C/Nc2ccc(Cl)cc2)n1 | inconclusive: 25.1 µM [inhibitor, single point] |  |
| O=C(CSc1nc2ccccc2c(=O)[nH]1)Nc1cccc([N+](=O)[O-])c1 | inconclusive: 39.8 µM [inhibitor, full curve, poor fit] |  |

The results go on:

| Compound | Potency | activity change, negative = inhibition |
| --- | --- | --- |
| Oc1c(Br)cc(Br)cc1CNc1ccccn1 | inconclusive: 22.4 µM [inhibitor, full curve, poor fit] |  |
| Oc1ccc(NC(=S)N=Nc2c(O)[nH]c3ccc(Br)cc23)cc1 | inconclusive: 28.2 µM [inhibitor, partial curve] |  |
| O=C(Nc1nc(-c2ccco2)c(-c2ccco2)s1)c1ccco1 | inconclusive: 79.4 µM [inhibitor, partial curve] |  |
| Cc1cc(S(=O)(=O)Nc2nc(CN3CCOCC3)nc3sc4c(c23)CCC4)ccc1F | inconclusive: 28.2 µM [inhibitor, full curve] |  |
| CC(C)[C@H](NC(=O)OCc1ccccc1)C(=O)OCC(=O)NC1(C#N)CCCC1 | inconclusive: 2.82 µM [inhibitor, partial curve, poor fit] |  |
| Cc1ccc(-n2nc(C)c3c(C(=O)OCC(=O)N(C)C4CCS(=O)(=O)C4)cc(-c4ccccc4)nc32)cc1 (configuration not stated) | inconclusive: 39.8 µM [inhibitor, single point] |  |
| CCOc1ccccc1Cn1c(=O)sc2ccccc21 | inconclusive: 39.8 µM [inhibitor, single point] |  |
| N#Cc1ccccc1OCC(=O)NC1CCCCC1 | inconclusive: 35.5 µM [inhibitor, full curve, poor fit] |  |
| CCOc1ccc(/C=C2/SC(=O)NC2=S)cc1 | inconclusive: 63.1 µM [inhibitor, partial curve] |  |
| CC/C(C)=N/Nc1nc(-c2cc3cccc(OC)c3oc2=O)cs1 | inconclusive: 56.2 µM [inhibitor, partial curve] |  |
| Cc1cccc(Nc2nc(N)nc(N)c2N=O)c1 |  | inactive: -11.8% |
| C[C@@H]1CN([C@H](C)CO)C(=O)CCCn2cc(nn2)CO[C@H]1CN(C)C(=O)Nc1cccc2ccccc12 |  | inactive: -1.54% |
| COc1cccc(Nc2nc3ccccc3nc2NS(=O)(=O)c2ccc(NC(C)=O)cc2)c1 | inconclusive: 39.8 µM [inhibitor, full curve, poor fit] |  |
| CCCCC1=CC2=CC(=O)C(C)(OC(=O)CCc3ccccc3)C(=O)C2=CO1 (configuration not stated) | inconclusive: 39.8 µM [inhibitor, partial curve] |  |
| CCOC(=O)NC(=O)CSc1nc(-c2ccc(C)c(C)c2)cn1-c1ccccc1 | inconclusive: 11.2 µM [inhibitor, partial curve] |  |
| Cc1cccc(NC(=S)NC(=O)/C=C/c2ccco2)c1 | inconclusive: 15 µM [inhibitor, partial curve] |  |
| CC(=O)Nc1ccc(-c2csc(N/N=C\c3ccncc3)n2)cc1 | inconclusive: 3.55 µM [inhibitor, full curve, poor fit] |  |
| O=S(c1ccccc1O)S(=O)c1ccccc1O (configuration not stated) | active: 14.1 µM |  |
| COc1cccc(/C=N/Nc2nc(Nc3ccccc3)nc(-n3nc(C)cc3C)n2)c1O | inconclusive: 89.1 µM [inhibitor, single point] |  |
| N=C1/C(=C\c2ccc(-c3cccc(C(=O)O)c3)o2)C(=O)N=C2SC=C(c3ccccc3)N12 | active: 39.8 µM |  |
| O=C1C(=Cc2cn(-c3ccccc3)nc2-c2ccc(OCc3ccccc3)cc2)SC(=S)N1CCS(=O)(=O)O | active: 25.1 µM |  |
